Data as given in PubChem BioAssay AID528 (NMMLSC, 2006).
Fewer than 10 of roughly 24,000 compounds were called active. The inconclusive results got no clear call from the source; some entries with a clear call stand among them for comparison.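 Rule for the calls: active = fluorescent ligand binding to cells raised by more than 40% of the manganese-induced maximum; inconclusive = compound's own fluorescence above 85% of the ligand control signal; inactive = the rest.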

Sequences of proteins named here, by UniProt entry; tags and fusion partners are left off.
UniProt P13612, whole entry, looked up: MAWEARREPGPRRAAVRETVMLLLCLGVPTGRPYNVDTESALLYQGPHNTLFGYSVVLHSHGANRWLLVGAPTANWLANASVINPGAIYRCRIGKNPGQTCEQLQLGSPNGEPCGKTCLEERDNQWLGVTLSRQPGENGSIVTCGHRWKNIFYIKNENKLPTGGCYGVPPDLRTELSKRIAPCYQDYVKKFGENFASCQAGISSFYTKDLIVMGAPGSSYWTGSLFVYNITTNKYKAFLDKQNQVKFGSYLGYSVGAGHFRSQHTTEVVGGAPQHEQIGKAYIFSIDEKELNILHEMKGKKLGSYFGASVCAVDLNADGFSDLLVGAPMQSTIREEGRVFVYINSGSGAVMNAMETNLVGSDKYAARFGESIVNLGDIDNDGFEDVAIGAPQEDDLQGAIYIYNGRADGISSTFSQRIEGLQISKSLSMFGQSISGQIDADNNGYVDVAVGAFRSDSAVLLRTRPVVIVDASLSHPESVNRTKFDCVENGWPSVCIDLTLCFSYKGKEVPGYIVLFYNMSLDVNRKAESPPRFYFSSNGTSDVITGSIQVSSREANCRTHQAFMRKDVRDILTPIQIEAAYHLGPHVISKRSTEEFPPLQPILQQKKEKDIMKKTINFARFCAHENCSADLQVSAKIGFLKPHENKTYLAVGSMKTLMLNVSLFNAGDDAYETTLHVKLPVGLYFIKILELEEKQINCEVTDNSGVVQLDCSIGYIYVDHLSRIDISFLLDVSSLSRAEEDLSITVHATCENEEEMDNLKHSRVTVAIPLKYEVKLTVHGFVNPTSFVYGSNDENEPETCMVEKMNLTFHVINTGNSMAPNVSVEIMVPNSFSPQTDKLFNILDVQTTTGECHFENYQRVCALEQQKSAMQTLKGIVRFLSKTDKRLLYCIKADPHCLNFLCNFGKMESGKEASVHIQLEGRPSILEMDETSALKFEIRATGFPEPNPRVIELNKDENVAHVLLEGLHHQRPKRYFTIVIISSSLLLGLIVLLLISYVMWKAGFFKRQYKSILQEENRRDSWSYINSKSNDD

Target: Integrin alpha-4 (Homo sapiens) (UniProt P13612)
Experiment: enhancers of LDV-FITC binding to VLA-4 integrin, primary screen, Jurkat cells, flow cytometry (AID 528);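 for activation: 0% = ligand binding without compound and 100% = manganese-stimulated maximal binding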
Conditions: stronger effect = higher value, screened at 10 µM (by protocol)

| SMILES | activation |
| --- | --- |
| COc1ccc(OCC(=O)Nc2cc(-c3nn4c(C)nnc4s3)ccc2C)cc1 | inconclusive |
| CC(C)(C)C1CCc2c(sc(NC(=O)c3cc(C4CC4)on3)c2C#N)C1 (centres undefined) | inconclusive |
| C=CC(=C)CC(NC)c1ccccc1 (centres undefined) | inconclusive |
| COc1ccc(C2CNC(=O)C2)cc1OC1CCCC1 (centres undefined) | inactive: -2% |
| Cn1c(=O)[nH]c(=O)c2c1nc(CN1CCN(c3cccc(Cl)c3)CC1)n2CCN1CCOCC1 | inconclusive |
| COc1ccccc1C1c2c(oc3ccc(Cl)cc3c2=O)C(=O)N1c1cc(C)on1 (centres undefined) | inactive: -7.5% |
| CCN(CC)CCn1c(=S)[nH]c2cc(Cl)ccc2c1=O | inconclusive |
| O=C(Cc1ccccc1)Nc1ccc(-c2nnc(-c3ccco3)o2)cc1 | inconclusive |
| CCCn1cnc2c(c1=O)c1nc3ccccc3nc1n2Cc1ccccc1OC | inconclusive |
| Fc1ccc2nc(N3CCCCC3)sc2c1 | inconclusive |
| CC1(C)CC2CC(C)(CN2S(=O)(=O)c2ccc(N)cc2)C1 (centres undefined) | inconclusive |
| CC(C)CNS(=O)(=O)c1ccccc1C(=O)N1CCCCC1 | inconclusive |
| CC(=O)NC(CCS(C)(=O)=O)C(=O)Nc1ccccc1C (centres undefined) | inactive: -1% |
| CCCNC(=O)N1CCN(S(=O)(=O)c2ccc(C)c(C)c2)CC1 | inactive: -0.5% |
| Cc1nc2sc(C(c3ccccc3)N3CC(C)OC(C)C3)c(O)n2n1 (centres undefined) | inconclusive |
| COC(=O)c1cnn(-c2ccc(C)c(C)c2)c1-n1cccc1 | inconclusive |
| CCCCN(CCCC)S(=O)(=O)c1ccc2oc(C(=O)N3CCOCC3)c(C)c2c1 | inconclusive |
| CC1(C)C(=O)OC(c2cccs2)C(C)(C)C1=O (centres undefined) | inactive: -6% |
| Cc1cc(=O)n2nc(N3CCC(C(=O)NCCC4=CCCCC4)CC3)sc2n1 | inactive: 2% |
| COc1ccc(-c2cc(C(F)(F)F)nc(N3CCN(c4ccc(F)cc4)CC3)n2)cc1OC | inconclusive |
| N#Cc1ccccc1CSc1nc2ncc(Br)cc2[nH]1 | inconclusive |
| Cc1cccc(-c2nc(CS(=O)CC(=O)N3CCCCC3)c(C)o2)c1 (centres undefined) | inconclusive |

| SMILES | activation |
| --- | --- |
| CC(C)CCNC(=O)NC(=O)CN1C(=O)NC2(CCCCC2)C1=O | inconclusive |
| CC(=O)c1cccc(NC(=O)c2cnn3ccccc23)c1 | inconclusive |
| CCCNC(=O)CS(=O)Cc1nc(-c2ccc(OC)cc2)oc1C (centres undefined) | inconclusive |
| Cn1c(=O)c2c3c(sc2n2c(SCc4ccccc4)nnc12)CCCC3 | inactive: 8% |
| CCOc1cc(C(=O)NCc2ccncc2)cc(OCC)c1OCC | inactive: 2% |
| O=C(Nc1ccc(-c2noc(CCc3ccccc3)n2)cc1)c1ccco1 | inactive: -2% |
| O=C(CSc1ccc2nnc(-c3ccc(F)cc3)n2n1)N1CCCCC1 | inconclusive |
| CCCOC(=O)c1ccc(-c2c(C)noc2-c2ccc(OC)cc2O)o1 | inactive: 5.5% |
| COc1cccc(C2=NOC(C(=O)N3CCN(Cc4ccccc4)CC3)C2)c1OC (centres undefined) | inactive: 1% |
| Cc1ccc2c(c1)NC(=O)C(CC(=O)NCCCN1CCc3ccccc3C1)O2 (centres undefined) | inconclusive |
| CCc1ccccc1NC(=O)CN1C(=O)C2CCCN2c2ncc(Cl)cc21 (centres undefined) | inconclusive |
| CCC1=C/C(=C\c2ccc3c(c2)OCO3)C(=O)S1 | inconclusive |
| CCN(CC)C(=O)CSc1nc2ccccc2c(=O)n1CCC(=O)NCc1ccc(F)cc1 | inconclusive |
| O=C(OCc1nc2ccccc2s1)c1ccc(Br)s1 | inconclusive |
| CC(C)C1N=C2c3ccccc3N=C(SCC#N)N2C1=O (centres undefined) | inconclusive |
| Cc1onc(-c2ccccc2Cl)c1C(=O)N(C)C1CCCCC1 | inconclusive |
| Cc1cc(C(=O)N2CCN(Cc3ccc4c(c3)OCO4)CC2)on1 | inconclusive |
| Cc1ccc(-c2nc3s/c(=C\c4ccco4)c(=O)n3n2)cc1 | inconclusive |
| CN1CCN(c2ccccc2NS(=O)(=O)c2ccc3c(c2)CCN3C(=O)C2CCC2)CC1 | inactive: -5% |
| COc1ccc(-n2c(Cc3cccn3C)nnc2SCC(=O)Nc2ccc(Cl)cc2)cc1 | inactive: -4% |
| C=CCc1c(C)nc2c(C(=O)O)cnn2c1C | inconclusive |
| O=C(Nc1cccc2c1CCCC2)C1CCCN(S(=O)(=O)c2cccc3nonc23)C1 (centres undefined) | inactive: -6% |

| SMILES | activation |
| --- | --- |
| CCOC(=O)N1CCN(C(=O)CN2C(=O)COc3ccc(C(C)(C)C)cc32)CC1 | inactive: -2% |
| CC(C)c1ccc(C2CC(=O)N3CN(C)CSC3=C2C#N)cc1 (centres undefined) | inconclusive |
| Cc1c(C(=O)OCCOc2ccccc2)[nH]c2c1C(=O)CCC2 | inconclusive |
| Cc1cccc(-n2c(N)cc(=O)nc2SCC(=O)Nc2ccccc2)c1 | inconclusive |
| CCOC(=O)N1CCC(Nc2c(Nc3ccc(C)c(C)c3)c(=O)c2=O)CC1 | inconclusive |
| CC1CCCCN1CCNC(=O)c1ccc2c(=O)n(CCc3ccccc3)c(=O)[nH]c2c1 (centres undefined) | inactive: 2.3% |
| CCC1=C/C(=C/N(C)c2ccccc2)C(=O)S1 | inconclusive |
| COc1cc(C2/C(=C(/O)c3ccc(F)cc3)C(=O)C(=O)N2CCCC(=O)O)ccc1O (centres undefined) | inactive: 1% |
| CCC(=O)Nc1nonc1-c1nc2ccccc2n1N(C(=O)CC)C(=O)CC | inconclusive |
| Cc1c(C(=O)O)oc2ccc(S(=O)(=O)NCc3ccccc3)cc12 | inconclusive |
| CCc1ccccc1NS(=O)(=O)c1ccc2[nH]cc(C(=O)NCc3ccco3)c(=O)c2c1 | inconclusive |
| CC[n+]1ccc(C)c2cc(S(=O)C(F)(F)F)ccc21 (centres undefined) | inconclusive |
| CC(/C=N/O)Cc1ccc2c(c1)OCO2 (centres undefined) | inconclusive |
| CCOC(=O)CNC(=O)Cn1cnc2c(nnn2-c2cccc(Cl)c2)c1=O | inconclusive |
| CCC(=O)Oc1ccc(C2N(C(=O)CC)CCN2S(=O)(=O)c2ccc(C)cc2)cc1OC (centres undefined) | inconclusive |
| N#Cc1ccccc1NC(=O)CSc1nnc(-c2ccccc2)n1-c1ccccc1 | inconclusive |
| O=C(NCc1ccco1)C1(S(=O)(=O)c2ccc(Cl)cc2)CC1 | inactive: -4.3% |
| COc1ccc(-c2cc(C(F)(F)F)nc(N3CCN(Cc4ccccc4)CC3)n2)cc1OC | inactive: -4% |
| O=C(Nc1ccc(-c2nc3ccccc3[nH]2)cc1)c1ccco1 | inconclusive |
| CCN(C(=O)c1cn(C)c(=O)c2cc(OC)c(OC)cc12)c1cc(OC)ccc1OC | inconclusive |

15 entries from above, with bars between the fields.
SMILES | activation
CCOC(=O)N1CCN(C(=O)CN2C(=O)COc3ccc(C(C)(C)C)cc32)CC1 | inactive: -2%
CC(C)c1ccc(C2CC(=O)N3CN(C)CSC3=C2C#N)cc1 (centres undefined) | inconclusive
Cc1c(C(=O)OCCOc2ccccc2)[nH]c2c1C(=O)CCC2 | inconclusive
Cc1cccc(-n2c(N)cc(=O)nc2SCC(=O)Nc2ccccc2)c1 | inconclusive
CCC1=C/C(=C/N(C)c2ccccc2)C(=O)S1 | inconclusive
COc1cc(C2/C(=C(/O)c3ccc(F)cc3)C(=O)C(=O)N2CCCC(=O)O)ccc1O (centres undefined) | inactive: 1%
Cc1c(C(=O)O)oc2ccc(S(=O)(=O)NCc3ccccc3)cc12 | inconclusive
CCc1ccccc1NS(=O)(=O)c1ccc2[nH]cc(C(=O)NCc3ccco3)c(=O)c2c1 | inconclusive
CC[n+]1ccc(C)c2cc(S(=O)C(F)(F)F)ccc21 (centres undefined) | inconclusive
CC(/C=N/O)Cc1ccc2c(c1)OCO2 (centres undefined) | inconclusive
CCOC(=O)CNC(=O)Cn1cnc2c(nnn2-c2cccc(Cl)c2)c1=O | inconclusive
N#Cc1ccccc1NC(=O)CSc1nnc(-c2ccccc2)n1-c1ccccc1 | inconclusive
O=C(NCc1ccco1)C1(S(=O)(=O)c2ccc(Cl)cc2)CC1 | inactive: -4.3%
COc1ccc(-c2cc(C(F)(F)F)nc(N3CCN(Cc4ccccc4)CC3)n2)cc1OC | inactive: -4%
CCN(C(=O)c1cn(C)c(=O)c2cc(OC)c(OC)cc12)c1cc(OC)ccc1OC | inconclusive
